These are yes or no findings as the source states them, for the method shown. In cells and extracts the contact can be indirect. Some binding calls cover weakened binding; strength is not graded here.

By UniProt entry, the sequences of proteins in these tests, tags left out.
UniProt Q9EP80: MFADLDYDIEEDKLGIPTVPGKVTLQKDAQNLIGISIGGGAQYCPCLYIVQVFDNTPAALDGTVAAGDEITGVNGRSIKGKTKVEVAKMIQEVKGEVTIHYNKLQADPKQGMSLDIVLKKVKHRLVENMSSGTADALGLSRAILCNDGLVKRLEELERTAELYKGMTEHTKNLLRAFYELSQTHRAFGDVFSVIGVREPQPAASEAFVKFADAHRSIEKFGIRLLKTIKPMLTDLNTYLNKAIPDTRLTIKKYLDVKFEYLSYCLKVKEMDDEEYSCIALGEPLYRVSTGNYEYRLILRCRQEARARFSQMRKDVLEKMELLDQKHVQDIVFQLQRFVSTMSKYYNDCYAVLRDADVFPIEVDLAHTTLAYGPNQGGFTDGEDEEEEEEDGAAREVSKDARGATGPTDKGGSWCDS

This test has as its target Protein interacting with C kinase 1 (PICK1), endogenous in GH1 cells (rat (endogenous in GH1)) (UniProt Q9EP80). Description: co-IP; GH1 cell lysate (PBS + 1% Triton X-100); mouse anti-PICK1 2G10 on protein G agarose, 1 h at 4°C; washes include PBS with 1% Triton X-100 and 500 mM NaCl; blot with rabbit anti-ICA69; control: beads without antibody.

B1: Islet cell autoantigen 69 (ICA69), endogenous in GH1 cells (protein, UniProt Q63054 1-480)
chain: MSGHKCYSWELQDRFAQDKSVVNKMQQKYWETKQAFIKATGKKEDEHVVASDADLDAKLELFHSIQRTCLDLSKAIVLYQKRICFLSQEENELGKFLRSQGFQDKTRAGKMMQATGKALCFSSQQRLALRNPLCRFHQEVETFRHRAISDTWLTVNRMEQCRTEYRGALLWMKDVSQELDPDLYKQMEKFRKVQTQVRLAKKNFDKLKMDVCQKVDLLGASRCNLLSHMLATYQTTLLHFWEKTSHTMAAIHESFKGYQPYEFTTLKSLQDPMKKLVEKEKKKSSRRENREAVAQEPRQLISLEEENQHKESSTCQKEEGKSVPSSVDKSSADDACSGPIDELLDVKPEEACLGPMAGTPEPESGDKDDLLLLNEIFSTSSLDEGEFSREWAAVFGDDRLKEPAPMGAQGEPDPKPQIGSAFLPSQLLDQNMKDLQASLQEPAKAASDLTAWFSLFADLDPLSNPDAIGKTDKEHELLNA
With B1, the binding entry is on record as “binds”.

(Values after article PMC3635866.)
